# In PubChem BioAssay AID2685 (National Center for Advancing Translational Sciences (NCATS), 2010):
# The other results are listed elsewhere or left out. Further columns of the screen follow, without active or inactive calls. Most of these compounds were active or inconclusive in the main read-out, so they are no random draw. Potencies come from curve fits of mixed quality, noted in brackets.
# Assay: qHTS Assay for Lipid Storage Modulators in Drosophila S3 Cells;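 on cell number change: cells counted by Cell Tracker Red CMTPX staining in the red channel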
# Conditions: BODIPY lipid droplet fluorescence, 18-24 h; for cell number change: measured here: cell count max response, cells fed with added oleic acid
# Procedure, shortened: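 Drosophila S3 cells got compounds at several concentrations plus oleic acid (400 uM solution). Laser-scanning cytometry with 488 nm excitation read lipid droplets at 500-530 nm and cells at 575-640 nm. Percent activity was relative to 20 uM Triacsin C.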
# [1] = measured here: lipid fluorescence (Fed channel) AC50, cells fed with added oleic acid
# [2] = measured here: cell number channel AC50, cells fed with added oleic acid
structure (smiles),measurement,setting,value
CCOc1ccc(S(=O)(=O)N2Cc3ccccc3CC2C(=O)O)cc1 (stereo not given),cell number change,,2.23%
O=C(CCC1CCCCC1)Nc1ccc(S(=O)(=O)Nc2nccs2)cc1,cell number change,,13.9%
same,AC50,[1],"0.0517 µM [rising, full curve, poor fit]"
CCC(C)NC(=O)CSc1nc2ccccc2c(=O)n1CCCC(=O)NCC1CCCO1 (stereo not given),cell number change,,21.7%
same,AC50,[1],"1.64 µM [rising, partial curve]"
O=C(Nc1ccccn1)C1CCN(S(=O)(=O)c2ccc(Cl)cc2)CC1,cell number change,,-4.48%
same,AC50,[1],"6.51 µM [rising, single point]"
COC(=O)c1ccc(NC(=S)NC2CC(C)(C)NC(C)(C)C2)cc1,cell number change,,4.33%
COc1ccc(NC(=O)C2CCCN(C(=O)NC3CCCCC3)C2)cc1OC (stereo not given),cell number change,,-24.5%
same,AC50,[1],"0.116 µM [falling, partial curve, poor fit]"
O=c1[nH]c(-c2ccccc2)cs1,cell number change,,21.1%
same,AC50,[1],"29.1 µM [rising, single point]"
COC(=O)c1c(N2C(=O)CC(Sc3ccccc3C(=O)O)C2=O)sc2c1CCCC2 (stereo not given),cell number change,,8.59%
same,AC50,[2],"6.51 µM [rising, single point]"
same,AC50,[1],"4.61 µM [rising, partial curve]"
CC(=O)Nc1cccc2c1C(=O)NC2=O,cell number change,,-20.5%
same,AC50,[1],"25.9 µM [falling, partial curve]"
O=C(CCNC(=O)c1ccc(Cl)cc1)NCc1ccccc1Cl,cell number change,,5.09%
Cc1cc(C)nc(N/N=C/C2=C(N3CCOCC3)C(=C\c3ccc(Cl)cc3)/CC2)n1,cell number change,,1.34%
same,AC50,[2],"0.651 µM [falling, full curve, poor fit]"
same,AC50,[1],"0.146 µM [rising, full curve, poor fit]"
O=C(NCC(c1cccnc1)N1CCN(c2ccccc2)CC1)c1ccc2c(c1)OCO2 (stereo not given),AC50,[2],"0.164 µM [rising, full curve]"
same,AC50,[1],"0.461 µM [rising, full curve]"
CC(C)(C)NC(=O)CN(Cc1cccs1)C(=O)CCN1CCc2ccccc21,cell number change,,-33.3%
same,AC50,[2],"29.1 µM [falling, single point]"
same,AC50,[1],"16.4 µM [falling, single point]"
O=C(CN1CCN(c2ccccc2F)CC1)c1c[nH]c2ccccc12,cell number change,,-24%
same,AC50,[1],"29.1 µM [falling, single point]"
CCc1ccc(NC(=S)Nc2ccc(S(=O)(=O)Nc3ncccn3)cc2)cc1,cell number change,,-19.6%
same,AC50,[1],"4.11 µM [falling, full curve]"
Cc1ccc(C(=O)C(C)OC(=O)Cc2n[nH]c(=O)c3ccccc23)cc1C (stereo not given),cell number change,,40.1%
same,AC50,[2],"14.6 µM [rising, partial curve, poor fit]"
same,AC50,[1],"2.59 µM [rising, partial curve, poor fit]"
Nc1nc(N)n(-c2ccccc2)c(=Nc2ccccc2)n1,cell number change,,12.5%
CC(C)CNC(=O)C(=O)NCCC1CCCCN1S(=O)(=O)c1cccs1 (stereo not given),cell number change,,165%
same,AC50,[2],"23.1 µM [rising, partial curve]"
same,AC50,[1],"2.91 µM [falling, single point]"
COc1ccc(CNC(=S)N/N=C/c2ccc(O)c(OC)c2)cc1,AC50,[1],"25.9 µM [rising, single point]"
CCOC(=O)C1=C(C)N(CCCCCC(=O)O)C(=O)NC1c1ccc(Cl)cc1 (stereo not given),cell number change,,25.1%
COc1ccc(NC(=O)c2c(N)no[n+]2[O-])cc1,cell number change,,90.3%
CCn1ncc(Br)c1C(=O)Nc1cc(C(=O)OC)ccc1C(=O)OC,cell number change,,-13.1%
same,AC50,[1],"2.91 µM [rising, full curve, poor fit]"
COCCN(C(=S)Nc1cc(C)ccc1C)C(C)c1cccnc1 (stereo not given),cell number change,,11.3%
same,AC50,[1],"29.1 µM [rising, single point]"
O=C(N/N=C/c1ccc(OC(F)F)cc1)C1=COCCO1,cell number change,,-17.1%
CCOC(=O)c1sc2nc(CC(C)C)c3c(c2c1N)CCC3,cell number change,,183%
same,AC50,[2],"29.1 µM [rising, single point]"
Cc1nc(-c2ccccc2)ccc1C(=O)O,cell number change,,-14.4%
same,AC50,[1],"20.6 µM [falling, single point]"
CN(C(=O)COC(=O)c1cccc(S(=O)(=O)N(C)c2ccccc2)c1)C1CCCCC1,cell number change,,-16.5%
Cc1ccc(C)c(/C=C2\N=C(c3ccccc3F)OC2=O)c1,cell number change,,-22.8%
same,AC50,[1],"23.1 µM [falling, single point]"
CC(=O)Cn1c(=O)oc2ccccc21,cell number change,,-15.2%
same,AC50,[1],"0.0184 µM [falling, full curve]"
CCC(C(=O)NCCc1c[nH]c2cc(OC)ccc12)c1ccccc1 (stereo not given),cell number change,,75.4%
same,AC50,[2],"16.4 µM [rising, partial curve]"
Cc1cc(NS(=O)(=O)c2ccc(NC(=O)C(C)Oc3ccccc3Cl)cc2)no1 (stereo not given),cell number change,,14%
CCOC(=O)C1CCCN(C(=O)CCCn2nc(C)n3c(cc4sccc43)c2=O)C1 (stereo not given),cell number change,,1.45%
Cc1ccc(-c2nc3cc(N)ccc3o2)cc1,cell number change,,114%
same,AC50,[2],"2.59 µM [rising, full curve]"
same,AC50,[1],"1.84 µM [rising, full curve]"
O=C(c1ccco1)N1CCN(c2nc(C3CC3)nc3c2nnn3Cc2ccccc2Cl)CC1,cell number change,,-21%
same,AC50,[1],"29.1 µM [falling, single point]"
COC(=O)c1cc2c(ccn2-c2ccc(F)cc2)n1CC(=O)OC(C)C,cell number change,,-20.1%
same,AC50,[1],"10.3 µM [falling, partial curve]"
Cc1nc2cc(-c3sccc3-n3cccc3)nn2c(C)c1C,AC50,[1],"8.2 µM [rising, partial curve]"
O=C(CCCN1C(=O)c2cccnc2Oc2ccc(Cl)cc21)N1CCCCC1,cell number change,,-13.1%
same,AC50,[2],"0.00461 µM [falling, full curve, poor fit]"
same,AC50,[1],"0.58 µM [falling, single point]"
Cc1ccc(CN2CCN(CC(=O)NC(C)c3ccc4c(c3)OCCO4)C2=O)cc1 (stereo not given),cell number change,,-15%
same,AC50,[1],"20.6 µM [falling, single point]"
O=C(c1cc(COc2ccc(F)cc2Cl)on1)N1CCCCCCC1,AC50,[1],"0.58 µM [rising, single point]"
COc1ccc(S(=O)(=O)NCCc2nnc3ccc(SCc4cccnc4)nn23)cc1,cell number change,,13.4%
same,AC50,[1],"3.26 µM [rising, single point]"
CCCOC(=O)c1c(N)sc2c1CCC2,cell number change,,-16.5%
same,AC50,[1],"29.1 µM [rising, single point]"
Cc1ccc(NC2CCCN(C(=O)CCc3ccncc3)C2)cc1C (stereo not given),cell number change,,12.4%
COc1cccc(-c2noc(-c3ccc(Cl)nc3)n2)c1,cell number change,,24.3%
same,AC50,[2],"4.11 µM [rising, single point]"
same,AC50,[1],"2.59 µM [rising, partial curve]"
O=C(NCc1cccc(C(F)(F)F)c1)c1cccc(Cl)c1Cl,cell number change,,48.4%
same,AC50,[2],"29.1 µM [rising, single point]"
same,AC50,[1],"1.64 µM [falling, partial curve, poor fit]"
CCCCCN(C(=O)NC(=O)Nc1ccc(C)cc1)S(=O)(=O)c1ccccc1,cell number change,,-44.1%
same,AC50,[2],"7.31 µM [falling, partial curve]"
O=C1CS/C(=N\N=C\c2ccco2)N1c1ccccc1,cell number change,,2.46%
O=C(Nc1ccccc1C(=O)N1CCCC1)c1cccc(S(=O)(=O)N2CCCCC2)c1,cell number change,,34.3%
same,AC50,[2],"9.2 µM [rising, single point]"
Cc1nn(C)c(C)c1C1C(C#N)=C(N)Oc2n[nH]c(C)c21 (stereo not given),cell number change,,-0.487%
same,AC50,[1],"5.8 µM [rising, partial curve]"
O=C(NCc1cc(C(F)(F)F)cc(C(F)(F)F)c1)C1CC(c2c(Cl)cccc2Cl)=NO1 (stereo not given),cell number change,,-22.7%
same,AC50,[1],"29.1 µM [falling, single point]"
COc1ccc(N2CCN(CCNC(=O)c3ccc4c(c3)[nH]c(=S)n3c5ccccc5nc43)CC2)cc1,cell number change,,-7.51%
CCc1noc(C)c1C(=O)OCC(=O)Nc1cccc(C)c1,cell number change,,6.14%
same,AC50,[1],"29.1 µM [rising, partial curve, poor fit]"
CCN(CC)C(=O)c1cccc(-c2ccc(OC)cc2)c1,AC50,[2],"5.8 µM [rising, single point]"
same,AC50,[1],"6.51 µM [rising, single point]"
C#CCN(C#N)c1nc(NCC)nc(NC(C)C)n1,AC50,[2],"0.58 µM [rising, full curve]"
CCOC(=O)c1cc(NC(=O)N(CC)C2CCCCC2)c(C)nc1C,cell number change,,-12.2%
same,AC50,[1],"8.2 µM [rising, partial curve]"
Cc1c(NC(=O)CSCc2ccc(Cl)cc2Cl)cccc1C(=O)O,cell number change,,16.5%
same,AC50,[2],"0.206 µM [rising, full curve]"
CCCc1nnc(NS(=O)(=O)c2ccc(OC)cc2)s1,cell number change,,-12.7%
same,AC50,[1],"0.013 µM [falling, full curve, poor fit]"
Clc1ccc(OCCCNCc2ccccc2)c2ccccc12,cell number change,,-32.1%
same,AC50,[2],"14.6 µM [falling, single point]"
same,AC50,[1],"20.6 µM [falling, single point]"
O=[N+]([O-])c1cc(S(=O)(=O)Nc2cccc(Cl)c2)ccc1N=Nc1c(O)[nH]c2ccccc12,cell number change,,-30.8%
same,AC50,[2],"29.1 µM [falling, single point]"
same,AC50,[1],"29.1 µM [falling, single point]"
COc1ccc(CCNC(=O)CSc2nc(=O)[nH]c3c2CCC3)cc1OC,cell number change,,0.673%
O=C(NCc1cccnc1)c1ccc(CS(=O)(=O)c2ccc(Cl)cc2)o1,cell number change,,-13.4%
COc1ccc2nc(SCC(=O)O)nc(C)c2c1,cell number change,,-20.1%
COc1cccc(C(=O)Nc2ccc(NC(=O)Cc3ccccc3)cc2)c1,cell number change,,6.88%
same,AC50,[1],"14.6 µM [falling, partial curve]"
Cc1cccc(NS(=O)(=O)c2cccc3nonc23)c1,cell number change,,28.4%
same,AC50,[1],"29.1 µM [rising, single point]"
COc1ccccc1NC(=O)C(C)OC(=O)CCCc1c[nH]c2ccccc12 (stereo not given),cell number change,,41.1%
same,AC50,[2],"25.9 µM [rising, single point]"
same,AC50,[1],"23.1 µM [rising, partial curve]"

# For convenience, part of the list above.
structure (smiles),measurement,setting,value
Cc1ccc(C(=O)C(C)OC(=O)Cc2n[nH]c(=O)c3ccccc23)cc1C (stereo not given),AC50,[2],"14.6 µM [rising, partial curve, poor fit]"
same,AC50,[1],"2.59 µM [rising, partial curve, poor fit]"
Nc1nc(N)n(-c2ccccc2)c(=Nc2ccccc2)n1,cell number change,,12.5%
CC(C)CNC(=O)C(=O)NCCC1CCCCN1S(=O)(=O)c1cccs1 (stereo not given),cell number change,,165%
same,AC50,[2],"23.1 µM [rising, partial curve]"

# In another format: results already given.
structure (smiles)	measurement	setting	value
COc1ccc(NC(=O)C2CCCN(C(=O)NC3CCCCC3)C2)cc1OC (stereo not given)	cell number change		-24.5%
same	AC50	[1]	0.116 µM [falling, partial curve, poor fit]
